{
  "sequences": {"note": "Chains of the proteins cited; added tags and fusions are not shown. Lines headed by an entry give the natural chain unless they say otherwise; changes in a name come on top.", "UniProt O00194": "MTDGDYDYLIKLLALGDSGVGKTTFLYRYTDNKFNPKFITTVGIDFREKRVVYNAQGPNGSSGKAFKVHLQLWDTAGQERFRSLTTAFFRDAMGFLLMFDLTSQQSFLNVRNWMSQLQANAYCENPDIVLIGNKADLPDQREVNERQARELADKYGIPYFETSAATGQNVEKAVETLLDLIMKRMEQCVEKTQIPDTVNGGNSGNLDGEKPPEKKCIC", "UniProt Q13636": "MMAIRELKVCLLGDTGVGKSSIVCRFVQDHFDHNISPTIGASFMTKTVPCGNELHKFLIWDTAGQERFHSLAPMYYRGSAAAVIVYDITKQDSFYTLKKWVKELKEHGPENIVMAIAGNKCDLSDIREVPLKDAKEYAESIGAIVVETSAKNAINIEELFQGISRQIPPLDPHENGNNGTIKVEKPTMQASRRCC", "UniProt Q9ULC3": "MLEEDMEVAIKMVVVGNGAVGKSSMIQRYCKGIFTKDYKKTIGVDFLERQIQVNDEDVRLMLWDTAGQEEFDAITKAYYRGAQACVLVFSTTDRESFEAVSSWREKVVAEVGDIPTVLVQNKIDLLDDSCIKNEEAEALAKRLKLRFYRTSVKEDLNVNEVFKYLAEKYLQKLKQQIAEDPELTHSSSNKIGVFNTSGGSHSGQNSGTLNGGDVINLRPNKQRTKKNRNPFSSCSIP", "UniProt Q96E17": "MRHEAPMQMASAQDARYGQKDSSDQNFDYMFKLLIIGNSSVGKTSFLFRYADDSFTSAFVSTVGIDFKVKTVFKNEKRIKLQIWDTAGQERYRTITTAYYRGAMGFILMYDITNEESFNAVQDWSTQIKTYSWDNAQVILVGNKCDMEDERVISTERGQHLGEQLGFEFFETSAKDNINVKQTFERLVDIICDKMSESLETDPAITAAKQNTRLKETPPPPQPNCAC", "UniProt Q9NS91, whole entry, looked up": "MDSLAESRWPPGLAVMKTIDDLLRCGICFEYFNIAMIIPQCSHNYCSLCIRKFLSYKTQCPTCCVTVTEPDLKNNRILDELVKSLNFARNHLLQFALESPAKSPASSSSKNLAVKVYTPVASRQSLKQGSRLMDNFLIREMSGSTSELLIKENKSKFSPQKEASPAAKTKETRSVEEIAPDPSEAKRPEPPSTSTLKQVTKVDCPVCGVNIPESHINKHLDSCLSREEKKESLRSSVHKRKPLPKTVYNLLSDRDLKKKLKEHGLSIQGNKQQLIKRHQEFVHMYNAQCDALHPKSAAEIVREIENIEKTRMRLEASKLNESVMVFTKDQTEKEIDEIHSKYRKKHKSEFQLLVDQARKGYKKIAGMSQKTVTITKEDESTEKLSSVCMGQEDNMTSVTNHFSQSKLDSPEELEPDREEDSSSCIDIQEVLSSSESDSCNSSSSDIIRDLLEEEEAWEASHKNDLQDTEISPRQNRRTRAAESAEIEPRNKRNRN", "UniProt O43502": "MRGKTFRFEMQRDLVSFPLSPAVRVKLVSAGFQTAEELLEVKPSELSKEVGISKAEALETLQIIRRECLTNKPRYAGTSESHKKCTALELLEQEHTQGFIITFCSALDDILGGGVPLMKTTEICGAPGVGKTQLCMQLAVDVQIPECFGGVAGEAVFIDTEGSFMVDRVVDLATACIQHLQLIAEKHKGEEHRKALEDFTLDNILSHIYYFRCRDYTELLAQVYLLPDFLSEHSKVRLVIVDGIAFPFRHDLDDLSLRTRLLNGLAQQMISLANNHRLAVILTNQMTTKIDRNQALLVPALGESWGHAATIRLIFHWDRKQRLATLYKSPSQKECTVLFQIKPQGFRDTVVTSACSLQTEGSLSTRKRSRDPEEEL", "UniProt O60671": "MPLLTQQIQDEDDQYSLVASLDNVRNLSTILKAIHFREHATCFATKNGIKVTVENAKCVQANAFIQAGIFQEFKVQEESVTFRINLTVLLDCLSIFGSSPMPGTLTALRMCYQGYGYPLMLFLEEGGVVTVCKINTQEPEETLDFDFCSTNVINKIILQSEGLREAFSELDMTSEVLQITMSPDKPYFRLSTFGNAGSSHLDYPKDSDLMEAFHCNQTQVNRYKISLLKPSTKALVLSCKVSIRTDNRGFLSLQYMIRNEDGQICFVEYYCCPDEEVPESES", "UniProt P98179": "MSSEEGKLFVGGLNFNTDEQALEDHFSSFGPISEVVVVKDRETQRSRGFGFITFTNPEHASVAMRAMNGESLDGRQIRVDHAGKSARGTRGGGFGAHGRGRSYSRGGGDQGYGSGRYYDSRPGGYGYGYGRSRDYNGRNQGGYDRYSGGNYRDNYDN", "UniProt P10114": "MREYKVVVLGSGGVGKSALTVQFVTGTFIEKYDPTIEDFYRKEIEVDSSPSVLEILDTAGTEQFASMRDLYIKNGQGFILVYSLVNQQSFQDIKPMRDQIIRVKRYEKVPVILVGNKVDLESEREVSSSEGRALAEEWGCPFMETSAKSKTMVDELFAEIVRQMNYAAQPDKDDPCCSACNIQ", "UniProt Q969Q5": "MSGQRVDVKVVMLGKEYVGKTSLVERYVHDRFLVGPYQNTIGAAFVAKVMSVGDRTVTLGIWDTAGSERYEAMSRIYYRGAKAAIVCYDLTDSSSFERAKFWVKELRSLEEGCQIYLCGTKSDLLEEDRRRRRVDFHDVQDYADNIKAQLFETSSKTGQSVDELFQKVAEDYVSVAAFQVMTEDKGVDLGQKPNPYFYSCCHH", "UniProt P49792, whole entry, looked up": "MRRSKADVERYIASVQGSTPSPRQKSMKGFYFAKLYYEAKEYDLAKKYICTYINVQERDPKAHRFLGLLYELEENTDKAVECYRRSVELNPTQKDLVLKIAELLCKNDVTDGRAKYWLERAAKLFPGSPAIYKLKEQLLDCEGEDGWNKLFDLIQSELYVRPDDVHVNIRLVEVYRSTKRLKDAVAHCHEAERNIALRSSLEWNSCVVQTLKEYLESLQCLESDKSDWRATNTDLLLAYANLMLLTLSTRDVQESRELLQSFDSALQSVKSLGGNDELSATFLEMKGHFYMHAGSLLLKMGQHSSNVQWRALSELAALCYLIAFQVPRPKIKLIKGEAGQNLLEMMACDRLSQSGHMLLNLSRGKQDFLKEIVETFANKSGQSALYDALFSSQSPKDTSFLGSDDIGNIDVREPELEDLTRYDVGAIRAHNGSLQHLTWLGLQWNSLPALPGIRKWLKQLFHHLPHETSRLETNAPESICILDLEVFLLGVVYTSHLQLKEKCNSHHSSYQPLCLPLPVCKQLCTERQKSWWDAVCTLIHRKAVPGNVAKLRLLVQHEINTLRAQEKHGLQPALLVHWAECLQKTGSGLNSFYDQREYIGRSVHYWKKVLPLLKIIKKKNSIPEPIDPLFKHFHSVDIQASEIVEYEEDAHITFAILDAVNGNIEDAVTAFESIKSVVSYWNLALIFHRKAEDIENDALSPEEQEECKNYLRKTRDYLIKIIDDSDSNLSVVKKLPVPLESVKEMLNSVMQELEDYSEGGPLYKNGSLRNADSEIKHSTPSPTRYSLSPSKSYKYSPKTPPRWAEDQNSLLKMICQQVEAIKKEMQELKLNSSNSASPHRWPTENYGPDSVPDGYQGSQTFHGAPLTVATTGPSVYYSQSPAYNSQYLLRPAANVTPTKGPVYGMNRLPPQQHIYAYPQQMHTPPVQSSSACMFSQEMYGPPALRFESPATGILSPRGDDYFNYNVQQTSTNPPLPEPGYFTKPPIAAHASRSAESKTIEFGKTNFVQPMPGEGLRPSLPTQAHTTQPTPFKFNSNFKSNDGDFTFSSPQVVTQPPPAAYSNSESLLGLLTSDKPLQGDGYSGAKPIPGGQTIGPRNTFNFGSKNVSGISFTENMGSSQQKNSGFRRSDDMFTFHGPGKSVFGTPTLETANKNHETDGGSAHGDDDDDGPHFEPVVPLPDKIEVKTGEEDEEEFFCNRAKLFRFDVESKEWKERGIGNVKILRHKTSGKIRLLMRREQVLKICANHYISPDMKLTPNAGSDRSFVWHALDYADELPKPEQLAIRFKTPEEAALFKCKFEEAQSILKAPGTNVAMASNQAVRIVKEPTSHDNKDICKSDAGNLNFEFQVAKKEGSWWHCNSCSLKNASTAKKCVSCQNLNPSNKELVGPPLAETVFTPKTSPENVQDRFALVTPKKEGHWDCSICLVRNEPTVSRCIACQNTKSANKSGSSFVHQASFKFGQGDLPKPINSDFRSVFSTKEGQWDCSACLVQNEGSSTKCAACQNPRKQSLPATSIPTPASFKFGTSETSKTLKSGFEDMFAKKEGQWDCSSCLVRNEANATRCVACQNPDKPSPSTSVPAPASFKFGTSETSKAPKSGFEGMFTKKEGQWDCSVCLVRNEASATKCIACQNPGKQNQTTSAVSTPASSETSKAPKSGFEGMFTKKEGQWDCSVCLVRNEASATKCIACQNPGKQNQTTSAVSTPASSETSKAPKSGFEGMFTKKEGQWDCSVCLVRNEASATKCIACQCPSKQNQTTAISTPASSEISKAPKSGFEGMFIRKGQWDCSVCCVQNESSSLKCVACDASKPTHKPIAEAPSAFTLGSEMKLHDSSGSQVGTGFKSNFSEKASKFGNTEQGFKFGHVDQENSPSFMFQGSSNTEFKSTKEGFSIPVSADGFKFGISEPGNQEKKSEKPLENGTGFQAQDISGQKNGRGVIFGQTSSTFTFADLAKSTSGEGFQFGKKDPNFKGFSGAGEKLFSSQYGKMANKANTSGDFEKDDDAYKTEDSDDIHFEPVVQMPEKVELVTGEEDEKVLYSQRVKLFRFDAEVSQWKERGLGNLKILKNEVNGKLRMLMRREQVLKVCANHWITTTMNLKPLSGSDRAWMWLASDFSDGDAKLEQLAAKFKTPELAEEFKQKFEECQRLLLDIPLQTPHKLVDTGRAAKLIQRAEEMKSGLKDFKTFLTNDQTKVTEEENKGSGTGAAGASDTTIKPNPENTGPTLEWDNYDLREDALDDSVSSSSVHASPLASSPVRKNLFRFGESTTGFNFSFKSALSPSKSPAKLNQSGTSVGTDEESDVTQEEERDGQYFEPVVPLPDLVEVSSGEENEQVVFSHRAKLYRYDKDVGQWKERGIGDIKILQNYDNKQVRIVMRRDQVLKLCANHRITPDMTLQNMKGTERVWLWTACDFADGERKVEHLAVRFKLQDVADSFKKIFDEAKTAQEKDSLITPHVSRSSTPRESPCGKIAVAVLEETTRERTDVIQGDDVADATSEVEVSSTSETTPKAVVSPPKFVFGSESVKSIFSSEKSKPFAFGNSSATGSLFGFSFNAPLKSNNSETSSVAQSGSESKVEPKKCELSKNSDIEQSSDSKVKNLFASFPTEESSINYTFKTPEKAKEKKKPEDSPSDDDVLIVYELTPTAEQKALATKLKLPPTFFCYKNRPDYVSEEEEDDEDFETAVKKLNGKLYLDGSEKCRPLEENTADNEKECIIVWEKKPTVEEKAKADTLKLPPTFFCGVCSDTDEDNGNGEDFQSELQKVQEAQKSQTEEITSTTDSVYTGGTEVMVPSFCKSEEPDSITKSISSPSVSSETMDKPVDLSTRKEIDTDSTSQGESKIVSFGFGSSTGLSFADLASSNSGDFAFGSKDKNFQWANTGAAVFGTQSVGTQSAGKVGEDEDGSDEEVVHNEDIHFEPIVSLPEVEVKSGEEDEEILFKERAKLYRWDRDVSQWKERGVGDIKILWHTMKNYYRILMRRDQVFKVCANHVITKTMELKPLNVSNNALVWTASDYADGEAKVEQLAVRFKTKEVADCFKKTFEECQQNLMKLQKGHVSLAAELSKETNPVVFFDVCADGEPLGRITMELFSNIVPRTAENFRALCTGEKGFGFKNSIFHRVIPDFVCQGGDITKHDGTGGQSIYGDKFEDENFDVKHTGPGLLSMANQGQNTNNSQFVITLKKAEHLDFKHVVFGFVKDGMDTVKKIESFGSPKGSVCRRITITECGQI", "UniProt P62491": "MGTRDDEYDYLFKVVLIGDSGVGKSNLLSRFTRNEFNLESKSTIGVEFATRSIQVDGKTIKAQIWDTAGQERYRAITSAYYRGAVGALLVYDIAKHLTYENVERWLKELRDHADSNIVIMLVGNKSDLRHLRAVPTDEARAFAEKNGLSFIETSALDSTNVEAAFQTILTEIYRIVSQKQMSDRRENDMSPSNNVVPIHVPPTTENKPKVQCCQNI", "UniProt P51159": "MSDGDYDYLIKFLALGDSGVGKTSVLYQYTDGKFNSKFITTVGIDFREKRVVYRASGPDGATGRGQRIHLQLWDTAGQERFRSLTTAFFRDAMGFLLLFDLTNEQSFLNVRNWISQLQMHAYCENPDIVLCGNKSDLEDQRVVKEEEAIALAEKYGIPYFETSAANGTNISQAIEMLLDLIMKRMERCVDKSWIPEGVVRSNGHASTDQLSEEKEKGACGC", "UniProt P54725": "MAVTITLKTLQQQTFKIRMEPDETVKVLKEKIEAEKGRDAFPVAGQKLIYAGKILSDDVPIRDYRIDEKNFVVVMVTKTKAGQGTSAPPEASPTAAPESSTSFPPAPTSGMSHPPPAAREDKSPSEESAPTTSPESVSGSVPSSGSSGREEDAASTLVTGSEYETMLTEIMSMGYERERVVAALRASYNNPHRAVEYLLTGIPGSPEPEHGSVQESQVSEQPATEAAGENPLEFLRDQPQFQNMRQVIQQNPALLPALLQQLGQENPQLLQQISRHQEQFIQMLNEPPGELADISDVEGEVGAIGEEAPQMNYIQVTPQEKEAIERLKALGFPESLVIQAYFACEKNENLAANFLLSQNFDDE"},
  "source": "the supplement of paper PMC10849652",
  "note": "This is one part of the list.",
  "data": [
    {"compound": "Cc1sc2c(c1C)C(c1ccc(Cl)cc1)=N[C@@H](CC(=O)OC(C)(C)C)c1nnc(C)n1-2", "test": "log2 fold change, soluble protein after heating vs DMSO (PISA); higher = thermal stabilisation; K562 cells, 10 uM, 30 min; active = over 0.2 and 3.5 SD of the protein, either way, in both replicates (recomputed)", "outline": "(§1)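 K562 cells at 2×10^6 cells/mL were treated with 10 μM compound for 30 min. Aliquots were heated for 3 min across 48°C-58°C, pooled, and extracted in PBS with 0.5% NP-40 at 4°C; soluble protein was the supernatant after 21,000xg for 90 min. Soluble protein was quantified by TMTpro 16plex LC-MS/MS with channel sums equalised, and reported as log2 fold change in thermal stability against DMSO controls, with values from duplicates.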", "values": [
      {"target": "RAB27B (UniProt O00194)", "log2 fold change": "inactive: 0.093"},
      {"target": "RALGAPA1 isoform 6 (UniProt Q6GYQ0)", "log2 fold change": "inactive: 0.108"},
      {"target": "RAB31 (UniProt Q13636)", "log2 fold change": "inactive: -0.029"},
      {"target": "RAB23 (UniProt Q9ULC3)", "log2 fold change": "inactive: 0.039"},
      {"target": "RAB3C (UniProt Q96E17)", "log2 fold change": "inactive: 0.02"},
      {"target": "RAD18 (UniProt Q9NS91)", "log2 fold change": "inactive: -0.023"},
      {"target": "RBBP6 (UniProt Q7Z6E9)", "log2 fold change": "inactive: 0.066"},
      {"target": "RACGAP1 (UniProt Q9H0H5)", "log2 fold change": "inactive: 0.103"},
      {"target": "RACK1 (UniProt D6RF23)", "log2 fold change": "inactive: 0.105"},
      {"target": "RAD51C (UniProt O43502)", "log2 fold change": "inactive: 0.015"},
      {"target": "RALA (UniProt P11233)", "log2 fold change": "inactive: -0.016"},
      {"target": "RAD1 (UniProt O60671)", "log2 fold change": "inactive: 0.037"},
      {"target": "RBM10 isoform 5 (UniProt P98175)", "log2 fold change": "inactive: 0.156"},
      {"target": "RAB11FIP1 (UniProt Q6WKZ4)", "log2 fold change": "inactive: -0.006"},
      {"target": "RBBP5 (UniProt Q15291)", "log2 fold change": "inactive: -0.008"},
      {"target": "RBM3 (UniProt P98179)", "log2 fold change": "inactive: 0.085"},
      {"target": "RAP1B (UniProt F5GZG1)", "log2 fold change": "inactive: 0.013"},
      {"target": "RAB33B (UniProt Q9H082)", "log2 fold change": "inactive: -0.016"},
      {"target": "RAP2A (UniProt P10114)", "log2 fold change": "inactive: 0.022"},
      {"target": "RBM27 (UniProt Q9P2N5)", "log2 fold change": "inactive: 0.029"},
      {"target": "RAB24 (UniProt Q969Q5)", "log2 fold change": "inactive: 0.003"},
      {"target": "RBM26 isoform 2 (UniProt Q5T8P6)", "log2 fold change": "inactive: -0.011"},
      {"target": "RANBP2 (UniProt P49792)", "log2 fold change": "inactive: -0.085"},
      {"target": "RAB11A (UniProt P62491)", "log2 fold change": "inactive: -0.022"},
      {"target": "RAB7A (UniProt P51149)", "log2 fold change": "inactive: 0.002"},
      {"target": "RAB1A (UniProt P62820)", "log2 fold change": "inactive: -0.022"},
      {"target": "RAB32 (UniProt Q13637)", "log2 fold change": "inactive: -0.053"},
      {"target": "RANBP1 (UniProt P43487)", "log2 fold change": "inactive: 0.011"},
      {"target": "RAB27A (UniProt P51159)", "log2 fold change": "inactive: -0.031"},
      {"target": "RALGPS2 (UniProt Q86X27)", "log2 fold change": "inactive: 0.116"},
      {"target": "RAB3GAP2 (UniProt Q9H2M9)", "log2 fold change": "inactive: 0.04"},
      {"target": "RAD23A (UniProt P54725)", "log2 fold change": "inactive: 0.014"}
    ]},
    {"compound": "c1ccc([C@@H]2C[C@H]2NC2CCNCC2)cc1", "test": "log2 fold change, soluble protein after heating vs DMSO (PISA); higher = thermal stabilisation; K562 cells, 10 uM, 30 min; active = over 0.2 and 3.5 SD of the protein, either way, in both replicates (recomputed)", "outline": "as §1", "values": [
      {"target": "RAB27B (UniProt O00194)", "log2 fold change": "inactive: 0.128"},
      {"target": "RALGAPA1 isoform 6 (UniProt Q6GYQ0)", "log2 fold change": "inactive: 0.063"},
      {"target": "RAB31 (UniProt Q13636)", "log2 fold change": "inactive: 0.012"},
      {"target": "RAB23 (UniProt Q9ULC3)", "log2 fold change": "inactive: -0.045"},
      {"target": "RAB3C (UniProt Q96E17)", "log2 fold change": "inactive: 0.036"},
      {"target": "RAD18 (UniProt Q9NS91)", "log2 fold change": "inactive: 0.007"},
      {"target": "RBBP6 (UniProt Q7Z6E9)", "log2 fold change": "inactive: -0.32"},
      {"target": "RACGAP1 (UniProt Q9H0H5)", "log2 fold change": "inactive: -0.032"},
      {"target": "RACK1 (UniProt D6RF23)", "log2 fold change": "inactive: 0.065"},
      {"target": "RAD51C (UniProt O43502)", "log2 fold change": "inactive: -0.065"},
      {"target": "RALA (UniProt P11233)", "log2 fold change": "inactive: 0.069"},
      {"target": "RAD1 (UniProt O60671)", "log2 fold change": "inactive: 0.043"},
      {"target": "RBM10 isoform 5 (UniProt P98175)", "log2 fold change": "inactive: 0.038"},
      {"target": "RAB11FIP1 (UniProt Q6WKZ4)", "log2 fold change": "inactive: 0.046"},
      {"target": "RBBP5 (UniProt Q15291)", "log2 fold change": "inactive: 0.04"},
      {"target": "RBM3 (UniProt P98179)", "log2 fold change": "inactive: 0.014"},
      {"target": "RAP1B (UniProt F5GZG1)", "log2 fold change": "inactive: -0.02"},
      {"target": "RAB33B (UniProt Q9H082)", "log2 fold change": "inactive: 0.069"},
      {"target": "RAP2A (UniProt P10114)", "log2 fold change": "inactive: -0.036"},
      {"target": "RBM27 (UniProt Q9P2N5)", "log2 fold change": "inactive: -0.01"},
      {"target": "RAB24 (UniProt Q969Q5)", "log2 fold change": "inactive: 0.057"},
      {"target": "RBM26 isoform 2 (UniProt Q5T8P6)", "log2 fold change": "inactive: 0.012"},
      {"target": "RANBP2 (UniProt P49792)", "log2 fold change": "inactive: -0.089"},
      {"target": "RAB11A (UniProt P62491)", "log2 fold change": "inactive: 0.009"},
      {"target": "RAB7A (UniProt P51149)", "log2 fold change": "inactive: 0.009"},
      {"target": "RAB1A (UniProt P62820)", "log2 fold change": "inactive: -0.002"},
      {"target": "RAB32 (UniProt Q13637)", "log2 fold change": "inactive: -0.005"},
      {"target": "RANBP1 (UniProt P43487)", "log2 fold change": "inactive: -0.008"},
      {"target": "RAB27A (UniProt P51159)", "log2 fold change": "inactive: 0.023"},
      {"target": "RALGPS2 (UniProt Q86X27)", "log2 fold change": "inactive: -0.01"},
      {"target": "RAB3GAP2 (UniProt Q9H2M9)", "log2 fold change": "inactive: 0.001"},
      {"target": "RAD23A (UniProt P54725)", "log2 fold change": "inactive: 0.017"}
    ]}
  ]
}
